Assay results from article PMC3167847.
Construct, isoform or probe ends are uncertain for at least one entry. Results from cells or extracts need not show a direct contact. For some of these results: At least one verdict rests on a figure or table, not on a statement of the authors. For some of these results: Tags and fusion partners may be left off the protein sequences shown.

By UniProt entry, the sequences of proteins in these tests, tags left out. Where a name states a change or a piece, a line headed by the entry shows the natural chain unless it says otherwise. Residues count along the entry.
UniProt Q04207, whole entry: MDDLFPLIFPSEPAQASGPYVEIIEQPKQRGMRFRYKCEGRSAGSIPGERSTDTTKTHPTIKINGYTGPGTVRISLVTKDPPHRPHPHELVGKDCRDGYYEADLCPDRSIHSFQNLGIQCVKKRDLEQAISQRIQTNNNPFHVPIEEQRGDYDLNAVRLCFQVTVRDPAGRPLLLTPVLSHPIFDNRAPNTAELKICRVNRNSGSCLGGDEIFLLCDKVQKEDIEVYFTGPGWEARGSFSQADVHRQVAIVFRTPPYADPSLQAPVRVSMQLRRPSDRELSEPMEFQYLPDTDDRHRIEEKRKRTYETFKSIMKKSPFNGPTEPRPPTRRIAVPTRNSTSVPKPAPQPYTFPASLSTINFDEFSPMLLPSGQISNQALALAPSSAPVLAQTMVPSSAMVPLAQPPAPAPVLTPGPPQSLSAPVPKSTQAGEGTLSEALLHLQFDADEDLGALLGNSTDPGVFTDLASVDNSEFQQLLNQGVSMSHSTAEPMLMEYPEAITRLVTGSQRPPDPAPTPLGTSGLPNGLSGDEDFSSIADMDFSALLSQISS
UniProt P15307, 2-587: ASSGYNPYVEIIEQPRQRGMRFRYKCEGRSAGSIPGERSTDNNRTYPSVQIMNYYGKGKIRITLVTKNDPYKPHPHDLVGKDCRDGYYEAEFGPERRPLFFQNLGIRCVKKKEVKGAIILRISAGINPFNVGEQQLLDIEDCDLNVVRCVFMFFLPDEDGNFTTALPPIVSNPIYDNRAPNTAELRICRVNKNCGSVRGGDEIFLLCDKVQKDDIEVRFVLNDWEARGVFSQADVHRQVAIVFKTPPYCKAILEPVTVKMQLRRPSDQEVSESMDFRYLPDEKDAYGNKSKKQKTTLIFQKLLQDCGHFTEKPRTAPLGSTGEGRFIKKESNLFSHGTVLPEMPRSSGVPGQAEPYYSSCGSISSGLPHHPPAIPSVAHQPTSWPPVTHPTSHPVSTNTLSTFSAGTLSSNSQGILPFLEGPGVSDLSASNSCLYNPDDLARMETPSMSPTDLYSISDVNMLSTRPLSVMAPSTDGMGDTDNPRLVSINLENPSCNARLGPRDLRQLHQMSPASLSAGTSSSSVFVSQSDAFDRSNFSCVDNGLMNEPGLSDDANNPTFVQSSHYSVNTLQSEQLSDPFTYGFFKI
UniProt O88942: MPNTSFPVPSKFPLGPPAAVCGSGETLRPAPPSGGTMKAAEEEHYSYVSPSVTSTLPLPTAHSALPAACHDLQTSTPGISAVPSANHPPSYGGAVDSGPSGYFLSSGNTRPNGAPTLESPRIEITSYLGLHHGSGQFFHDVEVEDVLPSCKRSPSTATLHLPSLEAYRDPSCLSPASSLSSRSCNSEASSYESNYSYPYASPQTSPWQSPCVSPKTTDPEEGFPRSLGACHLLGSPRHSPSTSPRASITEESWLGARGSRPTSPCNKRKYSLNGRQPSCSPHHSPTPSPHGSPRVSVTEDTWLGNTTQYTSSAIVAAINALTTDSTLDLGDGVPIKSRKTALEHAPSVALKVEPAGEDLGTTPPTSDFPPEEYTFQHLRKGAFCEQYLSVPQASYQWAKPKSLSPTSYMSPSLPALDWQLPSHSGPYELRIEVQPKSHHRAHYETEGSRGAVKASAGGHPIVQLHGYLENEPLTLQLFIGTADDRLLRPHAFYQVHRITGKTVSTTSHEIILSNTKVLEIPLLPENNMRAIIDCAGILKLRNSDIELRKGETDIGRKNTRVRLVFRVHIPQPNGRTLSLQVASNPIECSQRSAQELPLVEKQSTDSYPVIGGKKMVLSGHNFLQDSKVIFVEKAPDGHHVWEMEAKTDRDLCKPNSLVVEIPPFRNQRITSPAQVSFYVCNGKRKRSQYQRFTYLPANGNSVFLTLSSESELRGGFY
UniProt P47930: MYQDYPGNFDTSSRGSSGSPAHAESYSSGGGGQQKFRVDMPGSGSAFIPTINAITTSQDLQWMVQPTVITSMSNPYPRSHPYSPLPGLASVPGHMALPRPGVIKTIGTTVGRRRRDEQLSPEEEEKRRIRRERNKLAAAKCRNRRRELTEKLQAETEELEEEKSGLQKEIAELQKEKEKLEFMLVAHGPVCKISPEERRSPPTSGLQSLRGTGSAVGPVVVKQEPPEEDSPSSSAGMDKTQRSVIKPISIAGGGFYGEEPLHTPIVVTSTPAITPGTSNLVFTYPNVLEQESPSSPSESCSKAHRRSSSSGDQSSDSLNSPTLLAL
UniProt P05627, whole entry: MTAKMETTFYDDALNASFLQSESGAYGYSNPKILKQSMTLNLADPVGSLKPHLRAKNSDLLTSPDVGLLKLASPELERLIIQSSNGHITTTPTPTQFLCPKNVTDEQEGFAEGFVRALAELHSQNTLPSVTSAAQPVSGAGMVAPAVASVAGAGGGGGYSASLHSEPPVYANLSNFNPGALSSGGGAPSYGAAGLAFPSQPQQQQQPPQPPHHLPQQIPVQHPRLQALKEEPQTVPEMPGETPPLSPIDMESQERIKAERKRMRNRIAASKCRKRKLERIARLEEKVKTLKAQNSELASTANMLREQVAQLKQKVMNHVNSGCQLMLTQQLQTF
UniProt P09450: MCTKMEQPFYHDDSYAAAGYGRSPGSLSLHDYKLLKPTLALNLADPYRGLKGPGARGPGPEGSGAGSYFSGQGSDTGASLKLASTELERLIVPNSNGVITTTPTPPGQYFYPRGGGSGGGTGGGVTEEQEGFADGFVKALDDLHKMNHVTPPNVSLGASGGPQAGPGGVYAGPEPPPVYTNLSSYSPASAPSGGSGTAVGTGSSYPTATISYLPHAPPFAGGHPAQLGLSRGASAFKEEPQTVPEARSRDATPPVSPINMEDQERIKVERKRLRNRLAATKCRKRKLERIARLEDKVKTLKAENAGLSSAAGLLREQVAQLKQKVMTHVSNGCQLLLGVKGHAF
UniProt P13346: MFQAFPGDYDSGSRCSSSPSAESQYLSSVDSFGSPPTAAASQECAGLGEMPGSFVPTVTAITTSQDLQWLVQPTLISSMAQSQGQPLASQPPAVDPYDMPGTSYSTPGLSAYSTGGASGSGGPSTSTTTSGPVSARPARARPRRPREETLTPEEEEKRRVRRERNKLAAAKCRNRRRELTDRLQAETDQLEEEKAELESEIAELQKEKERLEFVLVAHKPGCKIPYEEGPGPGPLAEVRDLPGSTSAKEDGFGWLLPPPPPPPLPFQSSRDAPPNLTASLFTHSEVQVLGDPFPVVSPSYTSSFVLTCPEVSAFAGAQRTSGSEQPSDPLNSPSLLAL
UniProt P15066: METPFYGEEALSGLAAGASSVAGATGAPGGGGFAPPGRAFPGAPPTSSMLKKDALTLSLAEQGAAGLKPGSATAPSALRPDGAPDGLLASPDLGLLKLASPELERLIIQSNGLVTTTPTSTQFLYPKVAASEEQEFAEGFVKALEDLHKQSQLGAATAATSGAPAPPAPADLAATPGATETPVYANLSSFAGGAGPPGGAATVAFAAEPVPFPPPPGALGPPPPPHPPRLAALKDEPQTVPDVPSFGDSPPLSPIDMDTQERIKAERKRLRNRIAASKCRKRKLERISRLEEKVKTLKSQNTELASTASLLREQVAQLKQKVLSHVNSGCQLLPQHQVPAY
UniProt P01101, whole entry: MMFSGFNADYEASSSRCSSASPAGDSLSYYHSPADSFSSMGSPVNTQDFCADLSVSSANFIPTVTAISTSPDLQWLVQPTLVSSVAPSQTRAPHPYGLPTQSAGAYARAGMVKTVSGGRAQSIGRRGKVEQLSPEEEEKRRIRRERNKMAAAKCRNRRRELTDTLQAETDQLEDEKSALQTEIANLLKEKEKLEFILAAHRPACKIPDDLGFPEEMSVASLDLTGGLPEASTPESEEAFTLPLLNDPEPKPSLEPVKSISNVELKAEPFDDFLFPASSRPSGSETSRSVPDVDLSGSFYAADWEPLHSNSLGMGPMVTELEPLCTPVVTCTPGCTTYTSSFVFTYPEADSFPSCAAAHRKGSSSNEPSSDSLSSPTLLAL

Experiments:
Test in all cases: EMSA supershift
[1] = target: T1, p50 (NF-kB1) (Mus musculus (11A2 T cell line)) (UniProt P25799); settings: PMA+ionomycin 4 h, complexes I and II, less in TNF-treated cell extract; 5 ug nuclear extract, 32P probe, 15 min at room temperature, 6% native PAGE; antibody 1 ug preincubated 10 min; protein in an extract; label: 32P end label
T1 sequence (looked up, limits assumed): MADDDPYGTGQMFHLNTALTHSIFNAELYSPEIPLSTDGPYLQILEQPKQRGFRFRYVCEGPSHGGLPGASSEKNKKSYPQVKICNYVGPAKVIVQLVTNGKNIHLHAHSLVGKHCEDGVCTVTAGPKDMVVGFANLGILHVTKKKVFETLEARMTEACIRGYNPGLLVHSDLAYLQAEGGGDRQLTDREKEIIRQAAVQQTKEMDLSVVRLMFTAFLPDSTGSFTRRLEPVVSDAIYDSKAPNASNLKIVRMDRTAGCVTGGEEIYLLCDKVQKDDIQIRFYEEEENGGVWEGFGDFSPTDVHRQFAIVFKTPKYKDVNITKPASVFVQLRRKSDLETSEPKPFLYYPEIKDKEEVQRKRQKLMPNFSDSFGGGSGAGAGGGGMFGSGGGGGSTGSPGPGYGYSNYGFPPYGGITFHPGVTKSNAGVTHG

[2] = target: p65 (RelA) (Mus musculus (11A2 T cell line)) (UniProt Q04207); settings: PMA+ionomycin 4 h, complex I, less in TNF-treated cell extract; 5 ug nuclear extract, 32P probe, 15 min at room temperature, 6% native PAGE; antibody 1 ug preincubated 10 min; protein in an extract; label: 32P end label
[3] = target: c-Rel (Mus musculus (11A2 T cell line)) (UniProt P15307); settings: PMA+ionomycin 4 h, complex I, less in TNF-treated cell extract; 5 ug nuclear extract, 32P probe, 15 min at room temperature, 6% native PAGE; antibody 1 ug preincubated 10 min; protein in an extract; label: 32P end label
[4] = target: NFAT2 (NFATc1) (Mus musculus (11A2 T cell line)) (UniProt O88942); settings: PMA+ionomycin 4 h, similar in control and TNF-treated cell extract; 5 ug nuclear extract, 32P probe, 15 min at room temperature, 6% native PAGE; antibody 1 ug preincubated 10 min; protein in an extract; label: 32P end label
[5] = target: Fra-2 (Mus musculus (11A2 T cell line)) (UniProt P47930); settings: PMA+ionomycin 4 h, little or no TNF effect; 5 ug nuclear extract, 32P probe, 15 min at room temperature, 6% native PAGE; antibody 1 ug preincubated 10 min; protein in an extract; label: 32P end label
[6] = target: c-Jun (Mus musculus (11A2 T cell line)) (UniProt P05627); settings: PMA+ionomycin 4 h, little or no TNF effect, data not shown; 5 ug nuclear extract, 32P probe, 15 min at room temperature, 6% native PAGE; antibody 1 ug preincubated 10 min; protein in an extract; label: 32P end label
[7] = target: Jun B (Mus musculus (11A2 T cell line)) (UniProt P09450); settings: PMA+ionomycin 4 h, modestly reduced in TNF-treated cell extract; 5 ug nuclear extract, 32P probe, 15 min at room temperature, 6% native PAGE; antibody 1 ug preincubated 10 min; protein in an extract; label: 32P end label
[8] = target: Fos B (Mus musculus (11A2 T cell line)) (UniProt P13346); settings: PMA+ionomycin 4 h, little or no TNF effect; 5 ug nuclear extract, 32P probe, 15 min at room temperature, 6% native PAGE; antibody 1 ug preincubated 10 min; protein in an extract; label: 32P end label
[9] = target: Jun D (Mus musculus (11A2 T cell line)) (UniProt P15066); settings: PMA+ionomycin 4 h, little or no TNF effect; 5 ug nuclear extract, 32P probe, 15 min at room temperature, 6% native PAGE; antibody 1 ug preincubated 10 min; protein in an extract; label: 32P end label
[10] = target: c-Fos (Mus musculus (11A2 T cell line)) (UniProt P01101); settings: PMA+ionomycin 4 h, modestly reduced in TNF-treated cell extract; 5 ug nuclear extract, 32P probe, 15 min at room temperature, 6% native PAGE; antibody 1 ug preincubated 10 min; protein in an extract; label: 32P end label

Measured: binding result

AGTTGAGGGGACTTTCCCAGG (double strand) [NF-kB consensus oligonucleotide]
binds: [1] | [2] | [3]

CGCCCAAAGAGGAAAATTTGTTTCATA (double strand) [NFAT/AP-1 oligonucleotide]
binds: [4]

CGCTTGATGAGTCAGCCGGAA (double strand) [AP-1 oligonucleotide]
binds: [5] | [6] | [7] | [8] | [9] | [10]
